The values that follow come from paper PMC9037475.

Chains of the proteins cited; added tags and fusions are not shown.
UniProt P01106: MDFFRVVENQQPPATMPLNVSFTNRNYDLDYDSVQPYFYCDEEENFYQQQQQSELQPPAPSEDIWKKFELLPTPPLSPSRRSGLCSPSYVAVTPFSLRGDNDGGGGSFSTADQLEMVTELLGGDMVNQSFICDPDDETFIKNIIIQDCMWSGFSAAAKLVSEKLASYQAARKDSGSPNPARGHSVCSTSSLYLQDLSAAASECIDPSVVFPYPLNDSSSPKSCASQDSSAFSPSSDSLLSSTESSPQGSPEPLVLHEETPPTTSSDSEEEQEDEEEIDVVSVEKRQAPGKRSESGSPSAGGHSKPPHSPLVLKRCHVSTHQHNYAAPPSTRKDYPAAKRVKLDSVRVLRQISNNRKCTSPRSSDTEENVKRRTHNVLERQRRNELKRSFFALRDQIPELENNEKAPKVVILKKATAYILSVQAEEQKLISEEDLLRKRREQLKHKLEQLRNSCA

The assay deals with T1, Flag-tagged Fbxl8 (wildtype), expressed in 293 T cells (UniProt Q96CD0).
T1 sequence: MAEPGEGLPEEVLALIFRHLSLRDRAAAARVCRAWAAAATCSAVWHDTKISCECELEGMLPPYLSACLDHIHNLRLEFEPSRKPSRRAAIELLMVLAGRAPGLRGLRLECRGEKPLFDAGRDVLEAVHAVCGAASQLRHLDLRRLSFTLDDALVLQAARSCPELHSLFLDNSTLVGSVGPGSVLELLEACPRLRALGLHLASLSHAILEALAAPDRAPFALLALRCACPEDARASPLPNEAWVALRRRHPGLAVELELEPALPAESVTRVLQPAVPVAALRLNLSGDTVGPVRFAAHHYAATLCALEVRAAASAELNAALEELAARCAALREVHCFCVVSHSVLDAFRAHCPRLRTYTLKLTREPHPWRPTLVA
Nature of the assay: affinity purification with mass spectrometry; Flag-Fbxl8 expressed in 293 T cells; Tween 20 lysis buffer; complexes purified on FLAG M2 agarose, SDS-PAGE, silver stain, gel pieces to mass spectrometry.

No constants are given. Whether binding was seen depends on the method and setting. In cells and extracts the contact can be indirect. A yes stands for co-enrichment or nearness to the bait. Other partners may have been found. Where a sequence is shown, tags or fusion partners need not be part of it.

For the substance “c-myc coprecipitating from 293 T cells (from UniProt P01106 1-454)”, the binding result is on record as “binds”.
